Earlier results in US20240252516A1, “COMBINATION BPH THERAPY WITH FEXAPOTIDE TRIFLUTATE, A 5-ARI, AND AN ALPHA BLOCKER” (Nymox Corporation, priority 2023, published 2024).
Some entries share one result that the patent states for a list of compounds.

Test system: 5α-reductase
Settings: type II isoform predominates; cited from earlier work

## C[C@]12C=CC(=O)N[C@@H]1CC[C@@H]1[C@@H]2CC[C@]2(C)[C@@H](C(=O)Nc3cc(C(F)(F)F)ccc3C(F)(F)F)CC[C@@H]12 [dutasteride, 17β-N-(2,5-bis(Trifluoromethyl))phenylcarbamoyl-4-aza-5α-androst-1-en-3-one]
  decrease of levels of DHT in the prostate gland: 85 to 90%
